These are yes or no findings as the source states them, for the method shown. In cells and extracts the contact can be indirect. Some binding calls cover weakened binding; strength is not graded here.
Experiments:
Assay in all cases: co-IP; 500 μg lysate of A549 cells (Hsp27-WT, Hsp27-TriD) or of A549-MKK3E cells (Hsp27-WT, Hsp27-TriA) precipitated with anti-Hsp27 antibody (sc13132) overnight at 4°C and protein G-agarose; beads washed twice with lysis buffer; stemness proteins detected by Western blot
Hsp27-S15A/S78A/S82A = Hsp27-S15A/S78A/S82A (UniProt P04792)
Hsp27-S15D/S78D/S82D = Hsp27-S15D/S78D/S82D (UniProt P04792)
wild type Hsp27 = wild type Hsp27 (UniProt P04792)

The chains behind the UniProt entries cited, without tags or fusion partners. Where a name states a change or a piece, a line headed by the entry shows the natural chain unless it says otherwise.
UniProt P04792: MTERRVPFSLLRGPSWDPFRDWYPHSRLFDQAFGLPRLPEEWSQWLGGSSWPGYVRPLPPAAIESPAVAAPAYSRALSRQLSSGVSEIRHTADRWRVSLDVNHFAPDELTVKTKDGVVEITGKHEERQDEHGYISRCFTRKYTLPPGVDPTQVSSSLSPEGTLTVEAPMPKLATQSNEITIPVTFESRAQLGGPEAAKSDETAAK
UniProt O43474: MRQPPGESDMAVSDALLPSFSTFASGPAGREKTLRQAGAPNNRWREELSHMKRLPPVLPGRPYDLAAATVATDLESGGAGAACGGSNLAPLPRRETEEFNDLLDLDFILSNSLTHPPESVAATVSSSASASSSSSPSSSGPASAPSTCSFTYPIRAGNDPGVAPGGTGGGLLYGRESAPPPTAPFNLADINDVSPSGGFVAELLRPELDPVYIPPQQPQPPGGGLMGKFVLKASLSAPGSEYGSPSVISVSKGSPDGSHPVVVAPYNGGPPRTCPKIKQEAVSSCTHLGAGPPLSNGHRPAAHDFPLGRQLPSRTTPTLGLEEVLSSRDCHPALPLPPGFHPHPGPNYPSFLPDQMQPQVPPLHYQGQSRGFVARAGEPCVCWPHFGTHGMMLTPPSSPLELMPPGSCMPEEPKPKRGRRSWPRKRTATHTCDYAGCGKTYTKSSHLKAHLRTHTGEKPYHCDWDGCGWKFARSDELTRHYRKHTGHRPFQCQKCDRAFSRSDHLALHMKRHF
UniProt Q9H9S0: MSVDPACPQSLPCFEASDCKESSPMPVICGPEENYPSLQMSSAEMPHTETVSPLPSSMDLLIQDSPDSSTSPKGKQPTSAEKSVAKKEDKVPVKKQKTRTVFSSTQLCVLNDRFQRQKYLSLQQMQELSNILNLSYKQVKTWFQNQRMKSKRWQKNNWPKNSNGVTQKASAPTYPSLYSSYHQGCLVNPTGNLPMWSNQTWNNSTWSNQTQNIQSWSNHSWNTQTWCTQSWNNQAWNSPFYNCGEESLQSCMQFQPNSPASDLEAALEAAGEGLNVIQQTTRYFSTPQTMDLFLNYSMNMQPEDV
UniProt Q01860: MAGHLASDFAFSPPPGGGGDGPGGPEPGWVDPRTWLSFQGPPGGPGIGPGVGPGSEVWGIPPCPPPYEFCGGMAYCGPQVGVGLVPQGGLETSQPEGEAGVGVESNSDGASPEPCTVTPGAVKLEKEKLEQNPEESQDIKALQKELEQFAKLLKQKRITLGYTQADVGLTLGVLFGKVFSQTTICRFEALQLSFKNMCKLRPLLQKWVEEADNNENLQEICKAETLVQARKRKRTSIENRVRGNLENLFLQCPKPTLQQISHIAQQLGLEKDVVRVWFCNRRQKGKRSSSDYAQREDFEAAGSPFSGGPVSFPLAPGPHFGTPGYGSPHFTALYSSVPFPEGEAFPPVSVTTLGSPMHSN
UniProt P48431: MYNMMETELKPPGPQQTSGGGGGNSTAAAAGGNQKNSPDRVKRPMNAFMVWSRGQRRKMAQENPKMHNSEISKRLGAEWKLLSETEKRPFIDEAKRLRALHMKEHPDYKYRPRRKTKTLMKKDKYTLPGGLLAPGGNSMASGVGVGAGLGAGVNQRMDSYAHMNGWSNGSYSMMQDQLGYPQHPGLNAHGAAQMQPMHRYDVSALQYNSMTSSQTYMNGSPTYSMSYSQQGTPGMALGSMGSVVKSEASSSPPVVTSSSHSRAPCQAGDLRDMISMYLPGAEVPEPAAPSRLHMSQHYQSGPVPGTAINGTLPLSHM
UniProt P01106: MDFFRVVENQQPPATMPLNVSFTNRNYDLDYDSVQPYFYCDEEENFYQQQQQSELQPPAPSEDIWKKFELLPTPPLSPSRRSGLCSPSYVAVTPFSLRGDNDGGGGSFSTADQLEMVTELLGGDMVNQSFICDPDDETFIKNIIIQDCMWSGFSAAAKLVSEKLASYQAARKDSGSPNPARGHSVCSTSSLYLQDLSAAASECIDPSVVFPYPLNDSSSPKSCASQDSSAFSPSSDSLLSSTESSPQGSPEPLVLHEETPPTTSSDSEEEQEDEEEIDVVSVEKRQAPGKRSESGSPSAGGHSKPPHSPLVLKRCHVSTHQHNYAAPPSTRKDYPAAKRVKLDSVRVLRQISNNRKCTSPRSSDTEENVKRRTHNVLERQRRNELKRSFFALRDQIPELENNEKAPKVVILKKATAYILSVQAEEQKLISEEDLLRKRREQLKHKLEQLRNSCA

Measured: binding

Klf4 (Kruppel-like factor 4) (from UniProt O43474 1-513)
binds: Hsp27-S15A/S78A/S82A | Hsp27-S15D/S78D/S82D | wild type Hsp27

Nanog (from UniProt Q9H9S0 1-305)
binds: Hsp27-S15A/S78A/S82A | Hsp27-S15D/S78D/S82D | wild type Hsp27

Oct4 (Octamer-binding transcription factor 4) (from UniProt Q01860 1-360)
binds: Hsp27-S15A/S78A/S82A | Hsp27-S15D/S78D/S82D | wild type Hsp27

SOX2 (SRY (sex determining region Y)-box 2) (from UniProt P48431 1-317)
binds: Hsp27-S15A/S78A/S82A | Hsp27-S15D/S78D/S82D | wild type Hsp27

c-Myc (from UniProt P01106 1-454)
binds: Hsp27-S15A/S78A/S82A | Hsp27-S15D/S78D/S82D | wild type Hsp27
